Laboratory results: article PMC5321737
These are yes or no findings as the source states them, for the method shown. In cells and extracts the contact can be indirect. Some entries that bind do so weakly or less than the wild type.

The chains behind the UniProt entries cited, without tags or fusion partners. Where a name states a change or a piece, a line headed by the entry shows the natural chain unless it says otherwise. A line that says so, or that is headed by a name, gives the form on record, which may keep a tag or linker.
UniProt Q8BUN5: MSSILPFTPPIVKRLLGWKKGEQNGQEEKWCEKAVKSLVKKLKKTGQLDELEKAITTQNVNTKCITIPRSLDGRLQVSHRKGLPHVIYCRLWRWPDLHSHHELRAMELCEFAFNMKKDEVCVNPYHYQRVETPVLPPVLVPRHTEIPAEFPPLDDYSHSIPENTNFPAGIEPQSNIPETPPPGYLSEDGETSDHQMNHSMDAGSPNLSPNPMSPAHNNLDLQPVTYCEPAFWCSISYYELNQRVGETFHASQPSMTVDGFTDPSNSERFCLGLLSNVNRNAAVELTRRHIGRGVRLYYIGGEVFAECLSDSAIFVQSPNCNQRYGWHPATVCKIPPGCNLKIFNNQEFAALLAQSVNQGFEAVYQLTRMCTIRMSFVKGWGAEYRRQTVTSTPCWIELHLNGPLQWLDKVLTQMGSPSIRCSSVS
UniProt P84022: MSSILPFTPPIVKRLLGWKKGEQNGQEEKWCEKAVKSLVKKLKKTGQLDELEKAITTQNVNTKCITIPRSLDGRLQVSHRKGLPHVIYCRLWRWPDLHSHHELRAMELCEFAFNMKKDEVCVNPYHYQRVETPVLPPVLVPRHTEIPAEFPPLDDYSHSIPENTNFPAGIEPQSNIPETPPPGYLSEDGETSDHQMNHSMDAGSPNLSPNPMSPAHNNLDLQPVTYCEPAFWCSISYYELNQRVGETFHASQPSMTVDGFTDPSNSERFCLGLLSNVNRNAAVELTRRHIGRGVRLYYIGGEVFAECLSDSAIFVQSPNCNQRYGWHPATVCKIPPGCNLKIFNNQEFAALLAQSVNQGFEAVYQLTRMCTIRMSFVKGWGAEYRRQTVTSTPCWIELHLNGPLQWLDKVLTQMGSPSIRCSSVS
Flag SMAD3-K3R expressed from lentivirus in calvarial osteoblasts (P84022, form named): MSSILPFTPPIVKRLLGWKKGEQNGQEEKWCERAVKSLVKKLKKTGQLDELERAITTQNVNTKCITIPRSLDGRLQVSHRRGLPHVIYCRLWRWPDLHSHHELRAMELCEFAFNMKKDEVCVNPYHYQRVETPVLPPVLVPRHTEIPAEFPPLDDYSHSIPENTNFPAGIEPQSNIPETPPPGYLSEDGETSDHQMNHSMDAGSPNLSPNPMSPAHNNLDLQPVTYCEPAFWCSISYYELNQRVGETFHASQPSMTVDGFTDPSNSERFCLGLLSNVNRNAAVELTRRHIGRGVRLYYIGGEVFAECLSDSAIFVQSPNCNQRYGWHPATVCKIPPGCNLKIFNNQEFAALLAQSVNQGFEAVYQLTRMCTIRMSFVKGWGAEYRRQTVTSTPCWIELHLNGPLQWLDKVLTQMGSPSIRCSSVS

How the values were obtained:
[1] = biological target: endogenous SMAD3 (mouse (endogenous in calvarial osteoblasts)) (UniProt Q8BUN5); experiment: co-IP; endogenous VDR and SMAD3 in calvarial osteoblasts
[2] = biological target: Flag SMAD3-K3R expressed from lentivirus in calvarial osteoblasts (UniProt P84022); experiment: co-IP; Flag SMAD3 or SMAD3-K3R from lentivirus in calvarial osteoblast cells; endogenous VDR co-immunoprecipitated
[3] = biological target: Flag SMAD3 expressed from lentivirus in calvarial osteoblasts (UniProt P84022); experiment: as above

binding [1]: binds
binding [2]: binds
binding [3]: binds
B1: endogenous VDR (vitamin D receptor) (protein, UniProt P48281 1-422)
chain: MEAMAASTSLPDPGDFDRNVPRICGVCGDRATGFHFNAMTCEGCKGFFRRSMKRKALFTCPFNGDCRITKDNRRHCQACRLKRCVDIGMMKEFILTDEEVQRKREMIMKRKEEEALKDSLRPKLSEEQQHIIAILLDAHHKTYDPTYADFRDFRPPIRADVSTGSYSPRPTLSFSGDSSSNSDLYTPSLDMMEPASFSTMDLNEEGSDDPSVTLDLSPLSMLPHLADLVSYSIQKVIGFAKMIPGFRDLTSDDQIVLLKSSAIEVIMLRSNQSFTLDDMSWDCGSQDYKYDITDVSRAGHTLELIEPLIKFQVGLKKLNLHEEEHVLLMAICIVSPDRPGVQDAKLVEAIQDRLSNTLQTYIRCRHPPPGSHQLYAKMIQKLADLRSLNEEHSKQYRSLSFQPENSMKLTPLVLEVFGNEIS
